Assay results published in PubChem BioAssay AID540256 (National Center for Advancing Translational Sciences (NCATS), 2011).
Among all 300,000 compounds or so, about 3,700 (1.2%) were called active. This list was built around the results that the source calls inconclusive (neither active nor inactive); the mix of calls is not that of the screen. The call rests on the fitted dose curve; tested in HEK293 cells. Where the call is inconclusive, the potency comes from a doubtful curve fit.

Test: qHTS for Inhibitors of binding or entry into cells for Lassa Virus; further: nearly all actives have a fitted effect of over 50% in size
Details: Lassa virus pseudotype entry inhibition, cell reporter; activity change, negative = inhibition: at 37.9 µM (top of the series) unless noted
On the % scale 0 is the no-effect control and ±100 the full control effect; potency means the concentration at half of the fitted maximal effect.

| Structure (SMILES) | activity change, negative = inhibition | Potency |
| --- | --- | --- |
| O=C(N/N=C/c1sc(N2CCCCC2)nc1-c1cccs1)C1CC1 | inactive: -26% |  |
| CC(=O)c1cccc(NS(=O)(=O)c2ccc(C(=O)Nc3ccccc3)cc2)c1 |  | inconclusive: 7.08 µM [inhibitor, partial curve, poor fit] |
| CCn1c(SCC(=O)Nc2ccc(C)cc2)nc2sc3c(c2c1=O)CCN(C)C3 | inactive: -17.6% [at 46.1 µM] |  |
| CCOc1ccc(CC(C(N)=O)C(N)=O)cc1CN(C)C |  | inconclusive: 2.51 µM [activator, full curve] |
| O=C1CCCN1c1ccc(S(=O)(=O)NCCc2ccc(Cl)cc2)cc1 | inactive: -0.294% |  |
| Cc1ccc(S(=O)(=O)c2c(Nc3ccccc3)sc(C(=O)c3ccc4c(c3)OCO4)c2N)cc1 |  | inconclusive: 2.24 µM [inhibitor, full curve] |
| Cc1nnc2ccc(-c3ccc(NC(=O)Cc4cccs4)cc3)nn12 | inactive: 10.3% |  |
| CCOC(=O)C1C(=O)CC(=O)CC1CC(C)SCC (stereo unspecified) | inactive: 2.16% |  |
| COC(=O)CNC(c1ccccc1Cl)c1cc(Br)ccc1NS(=O)(=O)c1ccc(C)cc1 (stereo unspecified) |  | inconclusive: 35.5 µM [inhibitor, single point] |
| CCOc1ccc(N(C(=O)c2cnccn2)C(C(=O)NC2CCCCC2)c2ccc(O)cc2)cc1 (stereo unspecified) |  | inconclusive: 12.6 µM [inhibitor, partial curve, poor fit] |
| COc1ccc(/C=N/NC(=O)NC23CC4CC(CC(C4)C2)C3)c(OC)c1 |  | inconclusive: 10 µM [inhibitor, partial curve, poor fit] |
| COC(=O)c1c(-n2cnnn2)sc(C)c1C |  | inconclusive: 25.9 µM [activator, single point] |
| COc1ccc(S(=O)(=O)N2CCC(c3nnc(-c4ccccc4C)o3)CC2)c(OC)c1 | inactive: -13.9% [at 46.1 µM] |  |
| CC(C)(C)n1cnc2cc(NC(=O)c3ccccc3)ccc21 |  | inconclusive: 35.5 µM [inhibitor, single point] |
| COc1ccc(N(C(=O)c2snc(C(N)=O)c2N)C(C(=O)NCc2ccccc2)c2ccc(O)cc2)cc1 (stereo unspecified) |  | active: 0.73 µM |
| Cn1c(SCc2cccc(F)c2)nnc1-c1ccccn1 |  | inconclusive: 29.1 µM [activator, single point] |
| COc1cccc(-n2cc(C(=O)Oc3ccc(F)cc3)c3ccccc3c2=O)c1 |  | inconclusive: 35.5 µM [inhibitor, partial curve, poor fit] |
| O=C(CN1CCCC1)Nc1c2c(nc3ccccc13)N(Cc1ccccc1)CC2 | inactive: -12.6% |  |
| Cc1ccccc1C(=O)N1CCc2c([nH]c3ccccc23)C1C(F)(F)F (stereo unspecified) |  | inconclusive: 35.5 µM [inhibitor, single point] |
| Cc1cccc(Cc2nnc(CCC(=O)NCc3ccncc3C)o2)c1 | inactive: 9.28% |  |
| CCOc1ccc(/C=N/n2c(SC)nnc2-c2ccccc2)cc1OCC |  | inconclusive: 32.6 µM [inhibitor, partial curve, poor fit] |
| CS(=O)(=O)Nc1cccc(-c2ccc3c(NC(=O)C4CC4)n[nH]c3c2)c1 |  | inconclusive: 3.53 µM [inhibitor, full curve] |

Structural class, those above with an NH in an aromatic ring

| Structure (SMILES) | activity change, negative = inhibition | Potency |
| --- | --- | --- |
| Cc1ccccc1C(=O)N1CCc2c([nH]c3ccccc23)C1C(F)(F)F (stereo unspecified) |  | inconclusive: 35.5 µM [inhibitor, single point] |
| CS(=O)(=O)Nc1cccc(-c2ccc3c(NC(=O)C4CC4)n[nH]c3c2)c1 |  | inconclusive: 3.53 µM [inhibitor, full curve] |

(next part)

| Structure (SMILES) | activity change, negative = inhibition | Potency |
| --- | --- | --- |
| COc1ccc(C2NCc3ccc4c(c3-n3cccc32)OCO4)cc1O (stereo unspecified) |  | inconclusive: 1.41 µM [inhibitor, partial curve, poor fit] |
| COc1ccc(NS(=O)(=O)c2ccc(C(=O)N3CCCCCC3)cc2)cc1 |  | inconclusive: 11.2 µM [inhibitor, partial curve, poor fit] |
| CC(NC(=O)c1ccccc1Cl)C1CC2CCC1C2 (stereo unspecified) |  | inconclusive: 35.5 µM [inhibitor, single point] |
| CN(C)/C=N/c1c(C(=O)NCc2ccccc2)nnn1Cc1ccccc1 | inactive: 6.19% |  |
| C/C=C/c1ccc(OCC(=O)Nc2cc(S(=O)(=O)N3CCOCC3)ccc2N2CCCC2)c(OC)c1 |  | inconclusive: 17.8 µM [inhibitor, partial curve, poor fit] |
| O=C(N/N=C\c1cccnc1)c1cc(-c2ccccc2)nc2c(Cl)cccc12 |  | inconclusive: 17.8 µM [inhibitor, partial curve, poor fit] |
| O=C(O)CCNc1cc(N2CCN(C(=O)c3ccco3)CC2)c2noc3c2c1C(=O)c1ccccc1-3 |  | inconclusive: 17.8 µM [inhibitor, single point] |
| O=S1(=O)CCSCCN1Cc1cccc(Cl)c1 |  | inconclusive: 0.396 µM [inhibitor, full curve, poor fit] |
| Cc1cc(C(C)(C)C)cc(C)c1S(=O)(=O)N1CC(=O)Nc2ccccc21 |  | active: 11.2 µM |
| Nc1c(N(CCC2=CCCCC2)C(=O)Cc2ccccc2F)c(=O)[nH]c(=O)n1Cc1ccccc1 |  | inconclusive: 8.91 µM [inhibitor, partial curve] |
| O=[N+]([O-])c1cc(S(=O)(=O)C(F)(F)F)ccc1Sc1nc2ccccc2[nH]1 |  | inconclusive: 31.6 µM [inhibitor, single point] |
| COc1ccc(C)cc1S(=O)(=O)Nc1cccc(-c2ccc(N3CCCC3)nn2)c1 | inactive: 1.43% [at 46.1 µM] |  |
| Cc1nc(NC(=O)CSc2ccccc2N)sc1C |  | inconclusive: 14.6 µM [inhibitor, partial curve, poor fit] |
| N#Cc1c(SCC(=O)O)nc(-c2ccccc2)c2c1CCCC2 | inactive: -3.02% |  |
| Cc1ccccc1Cn1c(=N)n(CC(=O)c2ccc([N+](=O)[O-])cc2)c2ccccc21 |  | inconclusive: 7.08 µM [inhibitor, partial curve, poor fit] |
| O=C(c1ccco1)N(CCCN1CCOCC1)c1nc(-c2ccc(F)cc2)cs1 |  | inconclusive: 18.3 µM [inhibitor, single point] |
| COc1cccc(OC)c1C(=O)N1CCN(c2ccccn2)CC1 | inactive: 1.34% |  |
| O=C(Nc1ccc(NC(=S)NC(=O)c2cccs2)cc1)c1ccco1 | inactive: -7.82% [at 46.1 µM] |  |
| Cc1ccc(C(=O)N/C(=C\c2ccc(-c3ccccc3[N+](=O)[O-])o2)C(=O)NCCCN2CCOCC2)cc1 |  | inconclusive: 8.91 µM [inhibitor, partial curve, poor fit] |
| O=C(CNC(=O)c1ccccc1)N/N=C/c1cc(Br)ccc1O |  | inconclusive: 11.2 µM [inhibitor, partial curve, poor fit] |
| CCOC(=O)C1(Nc2nccs2)Sc2ccccc2NC1=O (stereo unspecified) |  | inconclusive: 1.16 µM [inhibitor, partial curve] |
| CC(C)Oc1ccc(CNC(=O)C2CCN(C(=O)N3CCOc4ccc(Cl)cc43)CC2)cc1 | inactive: -5.87% [at 46.1 µM] |  |

| Structure (SMILES) | activity change, negative = inhibition | Potency |
| --- | --- | --- |
| COCCNc1oc(-c2ccc(C)cc2)nc1C#N |  | inconclusive: 14.1 µM [inhibitor, single point] |
| COc1ccc(-n2nc(C(=O)NCC(=O)N3CCN(Cc4ccccc4)CC3)c3ccccc3c2=O)cc1OC | inactive: -6.26% [at 46.1 µM] |  |
| CC1CCc2c(sc(NC(=O)C3CCCO3)c2C#N)C1 (stereo unspecified) |  | inconclusive: 11.2 µM [inhibitor, partial curve, poor fit] |
| Cc1cccc(N2CCN(C(c3ccc(F)cc3)c3nnc(-c4ccccc4)o3)CC2)c1C (stereo unspecified) |  | inconclusive: 1.26 µM [inhibitor, full curve, poor fit] |
| COc1ccc2c(c1)CCN1C2CCN2C(=O)CCC21 (stereo unspecified) |  | inconclusive: 22.4 µM [activator, partial curve, poor fit] |
| N#C/C(=C\c1ccc[nH]1)C(=O)NCC1CCCO1 (stereo unspecified) |  | inconclusive: 35.5 µM [activator, single point] |
| COc1cc(NC(=O)Cn2ccsc2=N)c(C)cc1[N+](=O)[O-] |  | inconclusive: 14.6 µM [activator, partial curve, poor fit] |
| CCOC(=O)C1CCCN(C(=O)c2cc(-c3ccc(C)cc3)on2)C1 (stereo unspecified) |  | inconclusive: 29.1 µM [inhibitor, single point] |
| COc1ccc(N2CCc3c(C)nc(SC)nc32)cc1 |  | inconclusive: 31.6 µM [inhibitor, partial curve, poor fit] |
| COc1ccc(NC(=O)CN(C)CCOc2ccc(Cl)cc2)cc1OC |  | inconclusive: 17.8 µM [inhibitor, single point] |
| CC1(C)Cc2c(c(N3CCOCC3)nc3snc(Br)c23)CO1 | inactive: -17.3% |  |
| Cc1ccc(CCNC(=O)C2CCN(S(=O)(=O)c3cccc4cccnc34)CC2)cc1 |  | inconclusive: 12.6 µM [inhibitor, single point] |
| COc1ccc(C(=O)N[C@H](C(=O)NCCCSc2ccccc2)C(C)C)cc1 |  | inconclusive: 6.31 µM [inhibitor, full curve] |
| CCOC(=O)c1ccc2ncc(C(=O)OCC)c(NCCc3ccc(OC)c(OC)c3)c2c1 |  | inconclusive: 8.91 µM [inhibitor, partial curve, poor fit] |
| Cc1cc(C)c(NC(=O)c2ccc(CN3CCc4ccccc4C3)cc2)c(C)c1 |  | active: 15.8 µM |
| COc1ccc(C(=O)NC(=S)NNC(=O)c2ccco2)cc1 | inactive: -7.69% [at 46.1 µM] |  |
| Cc1nn(Cc2ccccc2Cl)c(C)c1NC(=O)CSc1n[nH]c(C)c1[N+](=O)[O-] |  | inconclusive: 20.6 µM [activator, partial curve, poor fit] |
| O=C(CN1C(=O)c2ccccc2C1=O)Nc1sc2c(c1C(=O)NCC1CCCO1)CCC2 (stereo unspecified) | inactive: 13.6% |  |
| O=C(COc1ccccc1)Nc1ccc(CSc2ccccc2)cc1 |  | inconclusive: 14.1 µM [inhibitor, single point] |
| CCCc1ccc2oc(C(=O)N(C)Cc3ccn[nH]3)c(C)c2c1 |  | inconclusive: 35.5 µM [inhibitor, single point] |
| CCOc1cc(-c2noc(N)c2C(=O)OC)cc(OCC)c1OCC |  | inconclusive: 1 µM [inhibitor, full curve, poor fit] |
| c1ccc(-c2cc(-c3nc(-c4ccccn4)no3)c3ccccc3n2)cc1 |  | inconclusive: 11.2 µM [activator, single point] |

Random excerpt: 2 compounds from above, in no set order.

| Structure (SMILES) | activity change, negative = inhibition | Potency |
| --- | --- | --- |
| CC1CCc2c(sc(NC(=O)C3CCCO3)c2C#N)C1 (stereo unspecified) |  | inconclusive: 11.2 µM [inhibitor, partial curve, poor fit] |
| O=[N+]([O-])c1cc(S(=O)(=O)C(F)(F)F)ccc1Sc1nc2ccccc2[nH]1 |  | inconclusive: 31.6 µM [inhibitor, single point] |
